# Source: PubChem BioAssay AID2685 (National Center for Advancing Translational Sciences (NCATS), 2010)
# Hit rate of the full screen: of about 320,000 compounds, about 2,100 (0.66%) were called active. The inconclusive results got no clear call from the source; some entries with a clear call stand among them for comparison. Calls come from the whole dose curve; as a rule, active = well fitted inhibition curve with a large enough effect in the signal ratio, with a control signal flat (not every such curve was filed as active); inconclusive = small, poorly fitted or top-dose-only effect, or effect the other way, or a change in a side signal; inactive = flat fitted curve, though single readings scatter; the % refers to the signal ratio. Potencies of inconclusive entries are doubtful fits and often do not repeat.
# Experiment: qHTS Assay for Lipid Storage Modulators in Drosophila S3 Cells
# Settings: BODIPY lipid droplet fluorescence, 18-24 h, cells fed with added oleic acid; lipid storage change, negative = inhibition: at 46.1 µM (top of the series) unless noted
# Outline: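 Laser-scanning cytometry quantifies lipid droplet accumulation (500–530 nm total intensity; droplet/cell object ratio) in oleic acid-fed (400 uM added) Drosophila S3 cells treated with a concentration series. 20 uM Triacsin C defined 100% inhibition.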
# % is set by controls: 0 for no effect and ±100 for the full control effect; potency is the fitted concentration of half-maximal effect.
Compound,"lipid storage change, negative = inhibition",Potency
COc1cc(/C=N/Nc2ccccc2[N+](=O)[O-])cc(OC)c1O,inconclusive: -10.1%,–
O=C(CNC(=O)N1CC(=O)Nc2ccccc21)NCc1ccccc1,–,"inconclusive: 23.1 µM [activator, single point]"
COc1ccccc1NC(=O)c1ccc(C(=O)Nc2ccccc2OC)nc1,inconclusive: 49.2%,–
Cc1nnc(SCCN2C(=O)c3ccccc3C2=O)[nH]c1=O,inactive,–
COC(=O)Cc1c(C)nc2nc(NCc3c(F)cccc3Cl)[nH]n2c1=O,–,"inconclusive: 29.1 µM [activator, single point]"
C=CCn1c(SCC(=O)Nc2ccc(N3CCOCC3)cc2)nc2ccccc2c1=O,inconclusive: 33.3%,–
Cc1cccc(C(=O)NCC(=O)Nc2ccc(S(=O)(=O)Nc3nc(C)cc(C)n3)cc2)c1,inconclusive: -24.6%,–
CC1CC(NC(=O)c2c(O)nc3sccn3c2=O)CC(C)(C)C1 (stereo unspecified),inconclusive,–
Cc1cccc(OCC(=O)N(C)CC(=O)Nc2cccc(F)c2)c1C,–,"inconclusive: 0.326 µM [activator, full curve, poor fit]"
CC(=O)Oc1ccccc1C(=O)NC(C)CCc1ccccc1 (stereo unspecified),–,"inconclusive: 9.2 µM [falling, partial curve]"
COc1ccccc1N(CC(=O)N(CC(C)C)CC(C)C)S(=O)(=O)c1cccs1,inconclusive: -32.1%,–
COc1cc(-c2noc(C)c2-c2ccc(N(C)C)nc2)cc(OC)c1OC,inconclusive: 195%,–
CCOC(=O)c1cnc(SC)nc1N,inconclusive: -2.84%,–
NC(=O)C1CCN(c2cc(Cl)ccc2[N+](=O)[O-])CC1,inconclusive: 18.4%,–
CCCc1c(C)nc(N2CCN(c3ccc(F)cc3)CC2)[nH]c1=O,inconclusive: 155%,–
CCOc1ccc(N2C(=O)CC(NCCc3ccncc3)C2=O)cc1 (stereo unspecified),inconclusive: 0.287%,–
O=C(COc1ccc(Cl)cc1)Nc1ccc2[nH]ncc2c1,inconclusive: 78.7%,–
CN(C(=S)NCCN1CCOCC1)C(c1ccccc1)c1ccccc1,inconclusive: 19.7%,–
O=c1[nH]c(-c2ccccn2)nc(C(F)(F)F)c1Br,–,"inconclusive: 1.46 µM [falling, full curve]"
O=C(COC(=O)Cc1ccccc1F)Nc1cccc(S(=O)(=O)NC2=NCCCCC2)c1,inconclusive: 3.41%,–
Cc1c(C(=O)N/N=C/c2cccc(O)c2)nnn1-c1nonc1N,–,"inconclusive: 32.6 µM [falling, single point]"
Cc1c(C(=O)N(C)C)c2cc(Cl)ccc2n1O,inconclusive: 7.69%,–
COC(=O)c1cccc(-n2nnnc2SCC(=O)Nc2cc(C)on2)c1,inconclusive: 32.5%,–
COc1ccccc1OCC(O)Cn1c(Br)nc2c1c(=O)[nH]c(=O)n2C (stereo unspecified),inconclusive: -17%,–
Cc1ccc(C)c(OCCC(=O)OCC(=O)Nc2ccc(N3CCOCC3)cc2)c1,inconclusive,–
Cc1cc(C)cc(NC(=O)Cn2nnc(C(=O)NCc3ccco3)c2N)c1,–,"inconclusive: 0.13 µM [activator, full curve, poor fit]"

Compound,"lipid storage change, negative = inhibition",Potency
CCOC(=O)N1CCN(C(=O)COC(=O)CSc2ccc([N+](=O)[O-])cc2)CC1,inconclusive,–
O=C(Nc1ccc(Oc2ccccc2)nc1)C1CCCCN1Cc1cccc(OCCO)c1 (stereo unspecified),–,"inconclusive: 20.6 µM [falling, partial curve, poor fit]"
Clc1ccc(-c2nnc(-c3ccc(Br)cc3)c(N3CCSCC3)n2)cc1,inconclusive: 31%,–
O=C(CCCCCNC(=O)N1CCn2c1nc1ccccc12)N[C@@H](C(=O)O)c1ccccc1,inactive,–
Cc1c(C(=O)NCCSCc2c(F)cccc2Cl)cnn1-c1ccc(Cl)cc1,inconclusive: 5.58%,–
CC(C)(C)OC(=O)N[C@H](Cc1ccccc1)C(=O)N1CCC(C(=O)O)CC1,inconclusive: -2.4%,–
Cc1ccccc1OCCn1ccnc1,–,"inconclusive: 6.51 µM [activator, single point]"
COc1ccc2c(c1)c(C(=O)CN1CCOCC1)c(C)n2C,–,"inconclusive: 1.64 µM [activator, partial curve]"
C=CCc1cccc(/C=N/c2ncccc2O)c1O,inconclusive: -1.68%,–
CC1Cc2ccccc2N1S(=O)(=O)c1cnc(Cl)c(Br)c1 (stereo unspecified),inconclusive: 21.8%,–
CC(/C=C/c1ccc(OCc2ccccc2)cc1)=N\O,–,"inconclusive: 11.6 µM [rising, single point]"
CC(C)C(=O)Nc1nc2c(c(=O)[nH]1)CCCC2,–,"inconclusive: 29.1 µM [falling, single point]"
CN=c1scc(C)n1/N=C/c1cc(Br)c(O)c(OC)c1,inconclusive: 14.6%,–
CCCS(=O)(=O)N1CCCC(C(=O)NCCCN(C)c2ccccc2)C1 (stereo unspecified),inconclusive: 2.78%,–
COc1ccccc1NC(=O)CN1CCC(n2c(C)nc3cc(F)ccc32)CC1,inconclusive: 10.1%,–
CC(=O)c1c(C)[n+]([O-])c2ccc3c(non3O)c12,inconclusive: 13.4%,–
Fc1cccc(Cl)c1Cn1ncc2ccccc21,–,"inconclusive: 2.31 µM [activator, partial curve]"
O=C(O)CN(c1ccccc1F)S(=O)(=O)c1ccccc1,inconclusive: -13.3%,–
Cc1cccc(C)c1NC(=O)c1sc(Cl)nc1C,inconclusive: 21.6%,–
CCC(C(=O)OCC(=O)Nc1cc(OC)ccc1OC)c1ccccc1 (stereo unspecified),inconclusive: 85.8%,–
CCOC(=O)c1oc2ccccc2c1COC(=O)CNC(=O)c1ccco1,inconclusive: 23.4%,–
COc1cccc(-c2cnc(OC(C)(C)C)nc2OC(C)(C)C)c1,–,"inconclusive: 29.1 µM [falling, single point]"
CN1c2ccsc2C(O)=C(C(=S)Nc2ccc(F)c(Cl)c2)S1(=O)=O,–,"inconclusive: 6.51 µM [falling, single point]"
COc1ccc(NS(=O)(=O)c2cc(NC(=O)c3ccc(=O)[nH]n3)ccc2C)cc1,inconclusive: 55.2%,–
O=C(O)C1CCCCC1C(=O)Nc1ccccn1 (stereo unspecified),–,"inconclusive: 0.13 µM [falling, full curve, poor fit]"

# A different layout for 13 compounds above.
Compound	lipid storage change, negative = inhibition	Potency
O=C(CNC(=O)N1CC(=O)Nc2ccccc21)NCc1ccccc1	–	inconclusive: 23.1 µM [activator, single point]
Cc1cccc(C(=O)NCC(=O)Nc2ccc(S(=O)(=O)Nc3nc(C)cc(C)n3)cc2)c1	inconclusive: -24.6%	–
COc1ccccc1N(CC(=O)N(CC(C)C)CC(C)C)S(=O)(=O)c1cccs1	inconclusive: -32.1%	–
NC(=O)C1CCN(c2cc(Cl)ccc2[N+](=O)[O-])CC1	inconclusive: 18.4%	–
CN(C(=S)NCCN1CCOCC1)C(c1ccccc1)c1ccccc1	inconclusive: 19.7%	–
Cc1c(C(=O)N/N=C/c2cccc(O)c2)nnn1-c1nonc1N	–	inconclusive: 32.6 µM [falling, single point]
Cc1c(C(=O)N(C)C)c2cc(Cl)ccc2n1O	inconclusive: 7.69%	–
Cc1c(C(=O)NCCSCc2c(F)cccc2Cl)cnn1-c1ccc(Cl)cc1	inconclusive: 5.58%	–
CC(C)C(=O)Nc1nc2c(c(=O)[nH]1)CCCC2	–	inconclusive: 29.1 µM [falling, single point]
CN=c1scc(C)n1/N=C/c1cc(Br)c(O)c(OC)c1	inconclusive: 14.6%	–
CC(=O)c1c(C)[n+]([O-])c2ccc3c(non3O)c12	inconclusive: 13.4%	–
CCC(C(=O)OCC(=O)Nc1cc(OC)ccc1OC)c1ccccc1 (stereo unspecified)	inconclusive: 85.8%	–
COc1ccc(NS(=O)(=O)c2cc(NC(=O)c3ccc(=O)[nH]n3)ccc2C)cc1	inconclusive: 55.2%	–
